# The campaign covered roughly 400,000 compounds. About 13,000 (3.2%) were called active. Inconclusive results, whose numbers are uncertain, are shown with a selection of clear calls. The call rests on the fitted dose curve; in most records, active means well fitted cell-killing curve with a large enough effect; inconclusive means small, poorly fitted or top-dose-only effect, or effect the other way; inactive means flat fitted curve, though single readings scatter. Potencies of inconclusive entries are doubtful fits and often do not repeat.
# Assay: qHTS assay for MDR1-selective chemotherapeutics: Primary screen using the drug-selected MDR subline cells KB-V1; further: nearly all actives have a fitted effect of over 60% in size
# Details: KB-V1 MDR cells viability, CellTiter-Glo, 72 h; activity change, negative = cytotoxicity: at 46.1 µM (top of the series)
# Method in brief: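 Drug-selected KB-V1 cells, grown in DMEM lacking phenol red with 10% FBS, receive compound titrations; after three days at 37 degrees C, surviving cell ATP is quantified by CellTiter-Glo luminescence and responses normalized and curve-fitted.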
# On the % scale 0 is the no-effect control and ±100 the full control effect; potency means the concentration at half of the fitted maximal effect.
Structure (SMILES),Potency,"activity change, negative = cytotoxicity"
CCOC(=O)Cc1csc(NC(=O)c2csc(C)c2)n1,active: 16.4 µM,
Cc1ccc(Nc2cc(-n3nc(C)cc3C)ncn2)c(C)c1,"inconclusive: 20.6 µM [cytotoxic, single point]",
COc1cc(OC)cc(C(=O)Nc2nc(-c3nnn(-c4ccc(C)cc4)c3C)ns2)c1,"inconclusive: 18.4 µM [cytotoxic, single point]",
Cc1ccc(/C=C/C(=O)c2ccccc(=O)c2O)cc1C,active: 20.6 µM,
Cc1ccc(NC(=O)NCCCc2ccccc2)cc1,,inactive: -4.48%
O=C(O)c1ccc(/C=N/Nc2nc3ccccc3[nH]2)cc1,,inactive: -25.4%
COc1ccc(-c2cc3c(=O)n(CC(=O)NCCN4CCCC4)nc(C)n3n2)cc1,"inconclusive: 2.06 µM [rising, full curve, poor fit]",
CCOC(=O)C1=C(CN2CCC(C)CC2)NC(=O)NC1c1ccc(OC(C)C)cc1 (stereo not drawn),"inconclusive: 25.9 µM [cytotoxic, single point]",
Clc1ccc(-c2nnc3sc(-c4ccc(Br)o4)nn23)c(Cl)c1,"inconclusive: 20.6 µM [cytotoxic, partial curve, poor fit]",
NC(=O)c1cccc(NC(=O)CCCCC(=O)Nc2cccc(C(N)=O)c2)c1,"inconclusive: 8.2 µM [rising, partial curve, poor fit]",
O=C1NC2(CCC3(CC2)OCCO3)NN1c1ccccc1,,inactive: -9.17%
CCc1nn(CC(=O)NCCc2ccc(Cl)cc2)c(=O)c2cc3c(OC)cccc3n12,"inconclusive: 0.82 µM [cytotoxic, full curve, poor fit]",
Cc1cccc(C)c1NC(=O)CSc1nnc(Cn2nnc(-c3ccccc3)n2)n1-c1ccccc1,active: 8.2 µM,
C=CCn1c(C(C)n2c(-c3cnccn3)nc3ccccc32)nc2ccccc21 (stereo not drawn),"inconclusive: 1.3 µM [cytotoxic, full curve]",
Cc1cccc2c(C(O)c3cn(C)c4ccccc34)c[nH]c12 (stereo not drawn),,inactive: -12.7%
COc1cc(CN2CCC(Oc3cc(C(=O)NC4CC4)ccc3OC)CC2)cc(OC)c1,"inconclusive: 11.6 µM [cytotoxic, partial curve]",
Cc1ccc(C)c(NC(=O)CSc2nc3ccccc3nc2N2CCOCC2)c1,"inconclusive: 29.1 µM [rising, partial curve, poor fit]",
O=[N+]([O-])c1ccc(O)c(C=Nc2cccc3ccccc23)c1,,inactive: -6.5%
CC/C(=N/Nc1ccccc1)c1cnnc(-c2ccccc2)n1,"inconclusive: 3.26 µM [cytotoxic, full curve]",
COC(=O)C1C(c2ccc(OC)c(OC)c2)NC(c2ccc(OC)c(OC)c2)C(C(=O)OC)S1(=O)=O (stereo not drawn),"inconclusive: 4.61 µM [cytotoxic, full curve]",
CCCC1C(=O)Nc2ccccc2N1C(=O)c1cccc(C)c1 (stereo not drawn),"inconclusive: 0.731 µM [cytotoxic, full curve, poor fit]",
COc1cccc(C(=O)N2N=C(c3ccccc3)CC2(O)C(F)(F)F)c1 (stereo not drawn),active: 16.4 µM,

Structure (SMILES),Potency,"activity change, negative = cytotoxicity"
COc1ccccc1CSc1ncc(-c2ccc([N+](=O)[O-])cc2)[nH]1,"inconclusive: 20.6 µM [cytotoxic, single point]",
Cc1cc(C)c(NC(=O)c2cc(C)nc3c2c(C)nn3-c2cccc(F)c2)c(C)c1,"inconclusive: 20.6 µM [rising, single point]",
CCCCNC(=S)N(C)/N=C/c1ccc(OCC(=O)Nc2ccc(OC)cc2)c(OC)c1,"inconclusive: 29.1 µM [cytotoxic, partial curve, poor fit]",
Cc1cc(=O)[nH]c(N/N=C/C2=C(N3CCOCC3)C(=C\c3ccc(Cl)cc3)/CC2)n1,"inconclusive: 20.6 µM [cytotoxic, partial curve, poor fit]",
COC(=O)c1sc(N)c(C(=O)OC)c1COC(=O)c1c(C)noc1C,active: 5.17 µM,
O=C(NCC1CCCO1)C(c1ccccn1)N(Cc1ccccc1Cl)C(=O)CN1C(=O)c2ccccc2S1(=O)=O (stereo not drawn),"inconclusive: 2.91 µM [rising, partial curve, poor fit]",
CC(C)(C)C1CCc2onc(C(=O)Nc3ccc(F)cc3F)c2C1 (stereo not drawn),active: 23.1 µM,
CCOC(=O)c1cc(S(=O)(=O)N2CCCC2)cn1C,"inconclusive: 0.0366 µM [rising, full curve]",
CCn1c(Cn2nnc(-c3ccccc3)n2)nnc1SCC(=O)Nc1cccc(C)c1C,"inconclusive: 14.6 µM [cytotoxic, partial curve]",
CC1(C)Cc2c(sc3nn[nH]c(=O)c23)CO1,"inconclusive: 23.1 µM [rising, partial curve, poor fit]",
COC(=O)c1ccc(CS(=O)(=O)c2ccc(C)cc2)cc1,"inconclusive: 23.1 µM [cytotoxic, single point]",
Oc1ccc(Br)cc1-c1cc(-c2ccccc2)n[nH]1,,inactive: 0%
CCCCOc1ccccc1C1NC(=O)NC(C)=C1C(=O)OCCOCC (stereo not drawn),"inconclusive: 13 µM [cytotoxic, partial curve, poor fit]",
CCn1nccc1NC(=O)c1csc([C@@H]2O[C@H](CO)[C@H](O)[C@H](O)[C@H]2O)n1,,inactive: 8.65%
Cc1noc(C)c1S(=O)(=O)N(C)C[C@H]1Oc2ccc(NC(=O)C3CC3)cc2C(=O)N([C@H](C)CO)C[C@@H]1C,"inconclusive: 23.1 µM [rising, single point]",
CCOC(=O)C(C)N1C(=O)S/C(=C\c2ccc(-c3ccccc3C(=O)O)o2)C1=O (stereo not drawn),,inactive: 18.3%
O=C(NCc1c(-n2cccc2)sc2c1CCCC2)Nc1cccc(C(F)(F)F)c1,,inactive: -8.92%
Cc1cc(S(=O)(=O)N2CCOCC2)ccc1OCC(=O)Nc1ccc(F)c(Cl)c1,"inconclusive: 10.3 µM [cytotoxic, partial curve]",
COc1ccc(OCC2CCNCC2)cc1,,inactive: -6.92%
FC(F)(F)Oc1ccc(NC(=S)NCCCN2CCOCC2)cc1,"inconclusive: 2.91 µM [cytotoxic, partial curve, poor fit]",
CCOc1ccc(-c2nnc(NC(=O)Cc3ccc(OC)cc3)o2)cc1,"inconclusive: 11.6 µM [cytotoxic, partial curve]",

# Given with bars between the fields: 3 of the compounds above
Structure (SMILES) | Potency | activity change, negative = cytotoxicity
CC(C)(C)C1CCc2onc(C(=O)Nc3ccc(F)cc3F)c2C1 (stereo not drawn) | active: 23.1 µM | 
Oc1ccc(Br)cc1-c1cc(-c2ccccc2)n[nH]1 |  | inactive: 0%
CCOC(=O)C(C)N1C(=O)S/C(=C\c2ccc(-c3ccccc3C(=O)O)o2)C1=O (stereo not drawn) |  | inactive: 18.3%

# — PubChem BioAssay AID1347076 (National Center for Advancing Translational Sciences (NCATS), 2019)
